# Values from PubChem BioAssay AID686937 (Drosophila RNAi Screening Center, 2013)
# Assay: 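Genes in the fly needed for secretion of protein constitutively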 (primary screen)
# Cells: Drosophila S2 cells expressing secreted horseradish peroxidase
# Reagent: long dsRNA against Drosophila genes
# Timing: about 5.5 days (5 days dsRNA, then 12 h reporter induction)
# Challenge: reporter expression induced after 5 days of dsRNA, read 12 h later; inducer not stated
# Measurement: 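After 5 days of dsRNA and 12 h of reporter induction, medium peroxidase read by chemiluminescence and scored as per-plate z-score; higher values mean more reporter released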
# Direction: z-score: higher = more reporter secreted into medium
# The deposit covers about 23,000 reagents; shown is a random part of those with a known target gene and a result. 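Reduced-secretion tags in replicate 1 do not always agree with the z-scores; no criterion for assigning the tags was given.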 A plus sign joins genes that one reagent is predicted to hit. No sequences are given here. Not given: the amount of reagent.
Gene,amplicon,"z-score, replicate 1","z-score, replicate 2","phenotype, replicate 1"
galene,DRSC08640,0.31,0.19,
galene,DRSC08641,0.51,0.3,
CG17572,DRSC02629,0.11,0.38,
CG8132,DRSC16383,0.67,0.73,
CG33263,DRSC10108,0.25,0.28,
CG1387,DRSC17904,0.41,0.53,
CG16974,DRSC02551,0.45,0.35,
CG15923,DRSC15129,0.32,0.29,
Mst84Dc,DRSC12599,-0.22,0.17,
l(2)efl,DRSC04698,0.22,0.15,
Cap-D3 + tomb,DRSC02347,0.19,0.24,
Plod,DRSC10601,0.36,0.2,
Plod,DRSC10602,0.42,0.24,
Fas2,DRSC17308,-2.45,-2.11,reduced secretion
Fas2,DRSC17309,0.19,-0.23,
Fas2,DRSC18664,-0.06,0.17,
da,DRSC03517,-0.05,0.18,
CG13151,DRSC06276,0.35,0.37,
CG31219,DRSC15140,0.3,0.43,
CG7264,DRSC10793,-0.21,0.09,
DNaseII,DRSC16310,0.26,0.27,
Mms19,DRSC12188,0.38,0.51,
tipE,DRSC08738,0.29,0.46,
Nurf-38,DRSC04629,0.33,0.07,
Non2,DRSC08272,0.22,0.15,
CG3246,DRSC00584,-0.19,0.03,
beat-Vc,DRSC12927,-0.46,0.22,
beat-Vc,DRSC14849,-0.56,-0.54,
gudu,DRSC02820,0.3,0.19,
dysf,DRSC14529,0.29,0.28,
dysf,DRSC14895,-1.02,-0.78,
dysf,DRSC14896,0.25,0.19,
dysf,DRSC14897,-4.56,-1.79,reduced secretion
gfzf,DRSC12506,-0.18,-0.28,
gfzf,DRSC21874,0.96,0.6,
CG2865,DRSC18527,0.19,0.38,
CG2865,DRSC18528,-1.62,0.21,
sub,DRSC06125,0.36,0.32,
Blos1,DRSC05970,0.3,0.35,
yellow-e,DRSC12966,0.04,0.62,
yellow-e,DRSC16563,0.39,0.21,
Rab18,DRSC18702,0.38,0.28,
raskol,DRSC19202,0.57,-1.16,
raskol,DRSC19731,0.34,0.59,
raskol,DRSC19964,0.29,0.23,
raskol,DRSC19967,-2.68,-0.92,
raskol,DRSC21788,-0.67,-0.48,
CG1544,DRSC15036,0.12,-0.04,
Mfap1,DRSC08154,-0.07,0.47,
sloth2 + sloth1,DRSC17922,0.09,0.08,
sloth2 + sloth1,DRSC17923,0.3,0.44,
CG12128,DRSC06104,0.4,0.28,
RhoGAP19D,DRSC20499,-0.15,-0.37,
RhoGAP19D,DRSC20500,0.6,0.34,
Idgf3,DRSC03351,0.48,0.29,
Uev1A,DRSC09763,0.48,0.41,
CG10185,DRSC14205,0.21,-0.38,
CG12133,DRSC06108,0.3,0.05,
CG8209,DRSC10970,0.23,0.16,
salt,DRSC15427,-0.17,0.5,
yki,DRSC04437,-0.16,-0.43,
fend,DRSC17601,0.32,-0.55,
fend,DRSC17867,0.4,0.23,
CG33506,DRSC05981,0.17,0.39,
CG11381,DRSC17780,0.23,0.21,
CG6051,DRSC15956,-1.26,-0.63,
CG5011,DRSC00674,0.21,0.13,
CG14182,DRSC10181,0.22,0.33,
muskelin,DRSC07273,0.37,0.31,
Ir8a,DRSC17817,0.39,0.23,
Ir8a,DRSC17869,0.46,0.38,
CG34163,DRSC01219,0.28,0.06,
CG11698,DRSC14355,-0.91,-0.33,
Drat,DRSC06600,0.06,0.35,
CG15432,DRSC00447,0.03,0.07,
CG6168,DRSC10596,0.53,0.46,
w,DRSC17233,0.37,0.62,
w,DRSC18850,0.14,0.23,
fit,DRSC15280,0.09,0.52,
lncRNA:CR31526,DRSC21520,-0.1,-0.52,
CG13841,DRSC14691,-0.27,-0.95,
Amnionless,DRSC00317,0.09,0.19,
CG13324,DRSC06361,0.04,-0.2,
Rift,DRSC14330,0.22,0.27,
CG32436,DRSC11683,0.13,0.52,
CG32436,DRSC11796,0.25,0.31,
CG18540,DRSC06767,-0.06,-0.01,
His3:CG33818 + His3:CG33857 + His3:CG33806 + 20 more,DRSC21267,-1.66,-1.78,reduced secretion
CG15522,DRSC15059,0.26,0.44,
shop,DRSC20030,0.25,0.14,
CG31677,DRSC22023,0.05,-0.06,
CG7365,DRSC10824,0.46,0.17,
Gsc,DRSC00755,0.44,0.2,
PIG-H,DRSC14856,0.51,0.5,
tbc,DRSC20540,-1.55,-0.43,
modSP,DRSC16726,0.23,0.44,
modSP,DRSC16857,-0.1,-0.18,
modSP,DRSC21489,-0.27,-0.09,
CG1827,DRSC06719,0.41,0.36,
CG11317,DRSC14299,0.22,-0.17,
Chd3,DRSC11114,0.41,0.42,
Vm26Aa,DRSC03472,-0.17,0.17,
NPF,DRSC17019,0.39,0.45,
CG10839,DRSC01965,0.16,0.31,

An excerpt from above, limited to “z-score, replicate 2”:
CG10185 [DRSC14205]: -0.38
CG12133 [DRSC06108]: 0.05
CG8209 [DRSC10970]: 0.16
salt [DRSC15427]: 0.5
yki [DRSC04437]: -0.43
